The record followed here is patent US9133271 (AbbVie / Abbott, dated 2015).

Experiment [1] addresses Cyno (column Cyno XR). As to the kind of experiment: cross-reactivity with cynomolgus DLL3, Biacore. Background: Surface plasmon resonance follows binding to a sensor surface in real time, without labels.
Experiment [2] concerns the target Cyno (column Cyno XR). As to the kind of experiment: cross-reactivity with cynomolgus DLL3, yeast display and flow cytometry.

No constants are given. Whether binding was seen depends on the method and setting. Binding can be weak; no strength is given.

B1: SC16.15 (antibody, V domains shown)
VH: QVQLQQSGAELAKPGASVKMSCKASGYTFTRYWIHWIKQRPGQGLEWIGYINPTTVYTEFNQNFKDKATLTADKSSTTASMQLSSLTSEDSAVYYCARGGSNFFDYWGQGTTLTVSS
VL: DIQMTQSPASLAASVGETVAITCRASENIYYNLAWYQQKQGKSPQLLIYTANSLEDGVPSRFSGSGSGTQYSLKINSMQPEDSATYFCKQAYDVPPTFGGGTKLEIK
Take B1: the binding result in the experiment with Cyno (column Cyno XR) [1] is given as “binds”.

B2: SC16.25 (antibody, V domains shown)
VH: QVTLKESGPGILQPSQTLSLTCSFSGFSLSTSGMGVGWIRQPSGEGLEWLTDIWWDDNKYYNPSLKSRLTISKDTSSNQVFLNITSVDTADTATYYCARRVNYYYDPYYAMDYWGQGTSVTVSS
VL: QIVLTQSPAIMSASPGEKVTMTCSASSSVSYMHWYQQKSGTSPKRWIYDSSKLASGVPARFSGSGSGTSYSLTISSMEAEDAATYYCQQWSSNPLTFGAGTKLELK
On to B2, for which, in the experiment with Cyno (column Cyno XR) [1], the binding result was “binds”.

B3: SC16.67 (antibody, V domains shown)
VH: EVQLVETGGGLVQPKGSLKLSCAVSAFTFTTYAMNWVRQAPGKGLEWVARIRNKSNNYATYYADSVKDRFTISRDDSQSMLYLQMNNLKIEDTAMYYCVFYYDYVYWGQGTLVTVSA
VL: QAVVTQESALTTSPGETVTLTCRSSTGAVTTSNYANWIQEKPDHLFTGLIGGTNNRAPGVPARFSGSLIGDKAALTITGAQTEDEAIYFCGLWYSNHLVFGGGTKLTVL
notes: murine anti-DLL3 mAb
With B3, the binding result with Cyno (column Cyno XR) [2] is “binds”.

B4: SC16.34 (antibody, V domains shown)
VH: QIQLVQSGPELKRPGETVKISCKASGYTFTNYGMNWVKQAPGKGLKWMGWINTYTGDPTYADDFKGRFAFSLETSASTAYLQINNLKNEDTATYFCARIGGNSPSDYWGQGTSLTVSS
VL: SIVMTQTPKFLLVSAGDRVTITCKASQSVSNDVAWYQQKPGQSPKLLIYYASNRYSGVPDRFTGSGYGTDFTFTISTVQAEDLAVYFCQQDYSSPWTFGGGTKLEIK
In the case of B4, the binding result with Cyno (column Cyno XR) [1] is listed as “binds”.

B5: SC16.56 (antibody, V domains shown)
VH: QIQLVQSGPELKKPGETVKISCKASGYTFTNYGMNWVKQAPGKGLKWMAWINTYTGEPTYADDFKGRFAFSLETSASTASLQIINLKNEDTATYFCARIGDSSPSDYWGQGTTLTVSS
VL: SIVMTQTPKFLLVSAGDRVTITCKASQSVSNDVVWYQQKPGQSPKLLIYYASNRYTGVPDRFAGSGYGTDFSFTISTVQAEDLAVYFCQQDYTSPWTFGGGTKLEIR
With B5, in the experiment with Cyno (column Cyno XR) [1], the binding entry is listed as “binds”.
